Test results taken from patent publication US10328065B2, “Pharmaceutical combination comprising the PI3K inhibitor alpelisib and the B-RAF inhibitor dabrafenib; the use of such combination in the treatment or prevention of cancer” (Novartis AG, priority 2015, dated 2019).
At least one read-out could not be matched to a standard name with certainty.

Test system: BRAF mutant colorectal cancer cell lines
Experiment: Cell proliferation, panel of 7 cell lines
Assay type: cell-based
Settings: all cell lines with a mutation in PIK3CA

Structure (SMILES): Cc1nc(NC(=O)N2CCC[C@H]2C(N)=O)sc1-c1ccnc(C(C)(C)C(F)(F)F)c1 [COMPOUND A, (S)-Pyrrolidine-1,2-dicarboxylic acid 2-amide 1-({4-methyl-5-[2-(2,2,2-trifluoro-1,1-dimethyl-ethyl)-pyridin-4-yl]-thiazol-2-yl}-amide)]
- growth inhibition as single agent (IC50, in words): micromolar IC50 values
